These are yes or no findings as the source states them, for the method shown. Binding seen in cells or lysates may run through a third protein. Some entries that bind do so weakly or less than the wild type. Where a sequence is shown, tags or fusion partners need not be part of it. One block for each binder: values may come before it.
Legend:
[1] = biological target: T1, HA-tagged lysyl-hydroxylase 1 (LH1-HA) (mouse) (UniProt Q9R0E2); assay: co-IP; 714 cells stably expressing SC65-Flag or empty vector (EV), where named transiently transfected with LH1-HA or CYPB-HA (48 h); for LH1-HA with P3H3: 714-pLen-EV cells transfected with LH1-HA in the presence of ascorbic acid; lysate with anti-DDDK, anti-HA or P3H3 antibody overnight at 4°C, A/G magnetic beads 4 h; elution at pH 2; Western blot
T1 sequence: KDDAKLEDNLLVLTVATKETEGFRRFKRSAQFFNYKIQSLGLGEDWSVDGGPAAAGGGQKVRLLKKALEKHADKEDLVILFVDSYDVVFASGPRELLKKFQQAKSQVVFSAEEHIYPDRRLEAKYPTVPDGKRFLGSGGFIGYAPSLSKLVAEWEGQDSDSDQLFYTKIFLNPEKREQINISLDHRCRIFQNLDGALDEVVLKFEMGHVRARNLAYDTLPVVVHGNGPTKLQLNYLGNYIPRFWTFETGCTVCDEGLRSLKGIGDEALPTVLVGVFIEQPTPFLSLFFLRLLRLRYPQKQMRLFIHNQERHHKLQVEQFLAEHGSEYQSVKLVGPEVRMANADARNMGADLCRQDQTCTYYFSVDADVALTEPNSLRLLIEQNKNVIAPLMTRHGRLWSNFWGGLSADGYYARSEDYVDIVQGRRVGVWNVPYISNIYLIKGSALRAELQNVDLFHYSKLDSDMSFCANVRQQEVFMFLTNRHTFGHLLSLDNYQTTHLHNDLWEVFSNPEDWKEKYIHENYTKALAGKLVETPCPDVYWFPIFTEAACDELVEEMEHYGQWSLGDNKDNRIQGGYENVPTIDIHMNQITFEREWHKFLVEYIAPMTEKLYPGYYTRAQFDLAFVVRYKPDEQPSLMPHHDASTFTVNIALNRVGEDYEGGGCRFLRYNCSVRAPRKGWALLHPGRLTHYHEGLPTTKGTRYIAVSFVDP

[2] = biological target: T2, prolyl 3-hydroxylase 3 (P3H3), endogenous (mouse (endogenous in 714 cells)) (UniProt Q8CG70); assay: as above
T2 sequence: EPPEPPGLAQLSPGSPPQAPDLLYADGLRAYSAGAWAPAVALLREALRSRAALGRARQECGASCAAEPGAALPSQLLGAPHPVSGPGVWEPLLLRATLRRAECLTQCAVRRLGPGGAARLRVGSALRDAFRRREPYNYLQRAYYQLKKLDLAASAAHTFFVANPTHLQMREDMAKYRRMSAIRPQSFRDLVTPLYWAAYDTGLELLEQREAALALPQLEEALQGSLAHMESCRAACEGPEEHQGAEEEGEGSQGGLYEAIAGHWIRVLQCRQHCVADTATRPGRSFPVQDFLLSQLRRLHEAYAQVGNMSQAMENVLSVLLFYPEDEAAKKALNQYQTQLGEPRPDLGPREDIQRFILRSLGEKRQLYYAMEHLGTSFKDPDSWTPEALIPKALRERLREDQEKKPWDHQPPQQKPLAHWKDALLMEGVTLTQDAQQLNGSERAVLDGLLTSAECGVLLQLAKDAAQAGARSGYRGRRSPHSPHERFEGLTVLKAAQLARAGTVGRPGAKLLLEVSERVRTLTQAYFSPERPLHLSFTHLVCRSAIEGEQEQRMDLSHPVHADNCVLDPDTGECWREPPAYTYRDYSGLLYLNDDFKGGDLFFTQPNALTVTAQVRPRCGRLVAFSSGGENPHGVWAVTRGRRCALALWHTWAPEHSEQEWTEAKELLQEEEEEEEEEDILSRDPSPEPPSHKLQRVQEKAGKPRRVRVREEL

[3] = biological target: T3, SC65-Flag (Synaptonemal Complex 65, P3H4) (mouse) (UniProt Q8K2B0); assay: co-IP + SEC; Large-scale anti-Flag IP from 714 cells stably expressing SC65-Flag (72 h ascorbic acid 100 μg/ml), eluted with excess Flag peptide (500 ug/ml), run on Superdex 200 Increase 10/300 GL in 50mM phosphate, 0.15M NaCl pH7.4 at room temperature; 500 ul fractions TCA-concentrated and blotted
T3 sequence: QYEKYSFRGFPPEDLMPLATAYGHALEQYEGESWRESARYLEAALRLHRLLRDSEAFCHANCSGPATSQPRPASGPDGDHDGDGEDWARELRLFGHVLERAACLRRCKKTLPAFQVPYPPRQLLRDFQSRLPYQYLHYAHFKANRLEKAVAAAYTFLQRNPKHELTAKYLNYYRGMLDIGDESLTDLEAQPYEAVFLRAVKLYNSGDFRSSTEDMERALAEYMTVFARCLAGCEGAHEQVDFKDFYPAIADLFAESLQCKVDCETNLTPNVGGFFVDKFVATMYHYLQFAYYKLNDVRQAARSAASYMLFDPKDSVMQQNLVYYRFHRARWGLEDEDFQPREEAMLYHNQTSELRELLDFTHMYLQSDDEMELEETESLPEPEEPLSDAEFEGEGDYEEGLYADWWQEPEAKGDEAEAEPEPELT

[4] = biological target: T3, SC65-Flag (Synaptonemal Complex 65, P3H4) (mouse); assay: co-IP; 714 cells stably expressing SC65-Flag or empty vector (EV), where named transiently transfected with LH1-HA or CYPB-HA (48 h); for LH1-HA with P3H3: 714-pLen-EV cells transfected with LH1-HA in the presence of ascorbic acid; lysate with anti-DDDK, anti-HA or P3H3 antibody overnight at 4°C, A/G magnetic beads 4 h; elution at pH 2; Western blot

binding [1]: binds | binding [2]: binds
B1: SC65-Flag (Synaptonemal Complex 65, P3H4) (protein, UniProt Q8K2B0 19-443)
chain: T3 sequence

binding [3]: binds | binding [1]: binds | binding [4]: binds
B2: prolyl 3-hydroxylase 3 (P3H3), endogenous (enzyme, UniProt Q8CG70 20-732)
chain: T2 sequence

binding [4]: binds | binding [2]: binds
B3: HA-tagged lysyl-hydroxylase 1 (LH1-HA) (enzyme, UniProt Q9R0E2 19-728)
chain: T1 sequence

binding [3]: binds
B4: lysyl-hydroxylase 1 (LH1), endogenous (enzyme, UniProt Q9R0E2 19-728)
chain: T1 sequence
